In patent US20150094271A1:
No constants are given. Whether binding was seen depends on the method and setting. Some binding calls cover weakened binding; strength is not graded here.

The chains behind the UniProt entries cited, without tags or fusion partners. Residues count along the entry.
UniProt Q00987, residues 1-125: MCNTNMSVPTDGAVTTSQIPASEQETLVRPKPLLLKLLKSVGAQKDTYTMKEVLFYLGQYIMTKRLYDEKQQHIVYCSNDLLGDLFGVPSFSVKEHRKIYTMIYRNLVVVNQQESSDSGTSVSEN

Target: HDM2NTD (N-terminal domain of HDM2, amino acids 1 to 125 of NP-002383) (human) (UniProt Q00987)
Experiment: small-angle X-ray scattering of the complex in solution

binding: binds
B1: leucine zipper variant p53LZ2 (designed binder)
chain: RMKQLEDKVGELLFSNYWLELEVARLKKLV
